Reference: paper doi:10.1101/2021.03.18.435801
No constants are given. Whether binding was seen depends on the method and setting. Binding seen in cells or lysates may run through a third protein. Some binding calls cover weakened binding; strength is not graded here.

Protein sequences, listed by entry. Tags and fused reporters are not part of them.
UniProt P42338: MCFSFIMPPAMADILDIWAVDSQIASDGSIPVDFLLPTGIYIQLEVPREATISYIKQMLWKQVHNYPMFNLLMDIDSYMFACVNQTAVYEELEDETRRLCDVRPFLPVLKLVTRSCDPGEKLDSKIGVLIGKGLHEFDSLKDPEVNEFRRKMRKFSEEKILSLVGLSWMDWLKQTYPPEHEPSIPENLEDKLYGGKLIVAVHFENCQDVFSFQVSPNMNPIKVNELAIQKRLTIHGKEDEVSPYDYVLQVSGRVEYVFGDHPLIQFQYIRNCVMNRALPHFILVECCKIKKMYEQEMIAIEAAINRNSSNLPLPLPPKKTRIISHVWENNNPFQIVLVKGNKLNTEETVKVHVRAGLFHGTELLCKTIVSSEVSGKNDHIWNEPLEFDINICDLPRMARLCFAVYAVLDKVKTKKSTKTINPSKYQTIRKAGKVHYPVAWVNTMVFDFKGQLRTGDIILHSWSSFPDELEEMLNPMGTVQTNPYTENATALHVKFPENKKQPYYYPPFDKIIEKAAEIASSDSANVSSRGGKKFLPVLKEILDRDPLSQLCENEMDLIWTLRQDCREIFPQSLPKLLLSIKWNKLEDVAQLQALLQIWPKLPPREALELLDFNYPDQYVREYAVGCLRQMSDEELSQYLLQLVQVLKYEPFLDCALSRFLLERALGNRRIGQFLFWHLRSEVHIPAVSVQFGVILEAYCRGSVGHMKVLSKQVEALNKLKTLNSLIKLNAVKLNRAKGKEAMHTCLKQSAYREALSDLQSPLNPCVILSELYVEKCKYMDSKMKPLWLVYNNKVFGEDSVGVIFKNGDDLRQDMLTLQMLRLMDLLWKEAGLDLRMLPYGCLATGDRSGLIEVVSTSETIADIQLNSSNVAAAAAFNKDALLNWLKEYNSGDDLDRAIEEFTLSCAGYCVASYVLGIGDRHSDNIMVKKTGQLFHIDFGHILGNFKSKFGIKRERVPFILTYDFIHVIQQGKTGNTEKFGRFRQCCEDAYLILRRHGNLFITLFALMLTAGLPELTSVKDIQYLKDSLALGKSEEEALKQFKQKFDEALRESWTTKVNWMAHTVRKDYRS

Target: EGFR (human (endogenous in TR3 and TR5 tumor-derived cells)) (UniProt P00533)
Test: co-IP

PI3Kβ (from UniProt P42338 1-1070) was tested, and the binding was “binds”.
